From the supplement of paper PMC10849652
This is one part of the list.

The chains behind the UniProt entries cited, without tags or fusion partners. Where a name states a change or a piece, a line headed by the entry shows the natural chain unless it says otherwise.
UniProt Q9H3L0: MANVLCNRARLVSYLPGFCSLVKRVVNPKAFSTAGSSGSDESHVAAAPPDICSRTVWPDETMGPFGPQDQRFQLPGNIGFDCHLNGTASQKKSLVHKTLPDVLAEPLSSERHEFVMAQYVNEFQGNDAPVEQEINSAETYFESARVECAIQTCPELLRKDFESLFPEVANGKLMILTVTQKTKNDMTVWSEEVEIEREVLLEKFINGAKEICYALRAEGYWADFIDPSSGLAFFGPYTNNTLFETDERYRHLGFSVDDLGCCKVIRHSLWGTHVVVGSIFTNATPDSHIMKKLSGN
UniProt P29372, whole entry, looked up: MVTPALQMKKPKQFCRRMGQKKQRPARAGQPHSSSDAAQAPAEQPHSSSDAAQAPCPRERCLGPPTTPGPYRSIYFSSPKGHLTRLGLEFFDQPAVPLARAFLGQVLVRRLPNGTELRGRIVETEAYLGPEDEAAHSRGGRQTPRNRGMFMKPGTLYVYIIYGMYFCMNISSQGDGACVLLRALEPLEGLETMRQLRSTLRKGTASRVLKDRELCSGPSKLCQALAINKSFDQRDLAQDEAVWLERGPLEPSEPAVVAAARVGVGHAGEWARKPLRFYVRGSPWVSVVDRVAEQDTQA
UniProt Q9Y3A3: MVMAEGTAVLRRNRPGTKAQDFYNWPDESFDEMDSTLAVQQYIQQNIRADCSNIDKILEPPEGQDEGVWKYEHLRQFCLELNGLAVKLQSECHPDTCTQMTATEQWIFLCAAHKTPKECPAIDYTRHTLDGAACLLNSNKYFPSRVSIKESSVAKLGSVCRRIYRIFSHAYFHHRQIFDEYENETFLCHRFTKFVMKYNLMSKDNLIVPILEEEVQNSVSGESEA
UniProt Q99797: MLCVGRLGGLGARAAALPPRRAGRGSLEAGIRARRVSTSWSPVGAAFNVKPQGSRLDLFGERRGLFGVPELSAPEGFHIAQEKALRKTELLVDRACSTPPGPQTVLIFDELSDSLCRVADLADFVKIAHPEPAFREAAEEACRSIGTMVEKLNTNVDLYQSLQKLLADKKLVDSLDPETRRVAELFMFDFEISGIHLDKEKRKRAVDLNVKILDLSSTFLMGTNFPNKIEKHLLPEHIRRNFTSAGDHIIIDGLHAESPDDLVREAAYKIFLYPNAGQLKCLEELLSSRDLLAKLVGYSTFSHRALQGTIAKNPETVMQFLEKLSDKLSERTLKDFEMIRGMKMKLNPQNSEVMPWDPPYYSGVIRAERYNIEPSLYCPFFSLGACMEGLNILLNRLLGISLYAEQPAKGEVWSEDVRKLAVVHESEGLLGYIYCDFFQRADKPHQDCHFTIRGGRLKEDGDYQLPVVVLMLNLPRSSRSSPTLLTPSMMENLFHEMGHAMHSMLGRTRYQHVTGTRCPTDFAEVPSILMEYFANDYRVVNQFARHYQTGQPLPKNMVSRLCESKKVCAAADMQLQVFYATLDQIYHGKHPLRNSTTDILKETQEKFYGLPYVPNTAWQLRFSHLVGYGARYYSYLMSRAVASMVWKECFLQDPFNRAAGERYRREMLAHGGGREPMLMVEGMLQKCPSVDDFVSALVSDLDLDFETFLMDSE
UniProt Q14149: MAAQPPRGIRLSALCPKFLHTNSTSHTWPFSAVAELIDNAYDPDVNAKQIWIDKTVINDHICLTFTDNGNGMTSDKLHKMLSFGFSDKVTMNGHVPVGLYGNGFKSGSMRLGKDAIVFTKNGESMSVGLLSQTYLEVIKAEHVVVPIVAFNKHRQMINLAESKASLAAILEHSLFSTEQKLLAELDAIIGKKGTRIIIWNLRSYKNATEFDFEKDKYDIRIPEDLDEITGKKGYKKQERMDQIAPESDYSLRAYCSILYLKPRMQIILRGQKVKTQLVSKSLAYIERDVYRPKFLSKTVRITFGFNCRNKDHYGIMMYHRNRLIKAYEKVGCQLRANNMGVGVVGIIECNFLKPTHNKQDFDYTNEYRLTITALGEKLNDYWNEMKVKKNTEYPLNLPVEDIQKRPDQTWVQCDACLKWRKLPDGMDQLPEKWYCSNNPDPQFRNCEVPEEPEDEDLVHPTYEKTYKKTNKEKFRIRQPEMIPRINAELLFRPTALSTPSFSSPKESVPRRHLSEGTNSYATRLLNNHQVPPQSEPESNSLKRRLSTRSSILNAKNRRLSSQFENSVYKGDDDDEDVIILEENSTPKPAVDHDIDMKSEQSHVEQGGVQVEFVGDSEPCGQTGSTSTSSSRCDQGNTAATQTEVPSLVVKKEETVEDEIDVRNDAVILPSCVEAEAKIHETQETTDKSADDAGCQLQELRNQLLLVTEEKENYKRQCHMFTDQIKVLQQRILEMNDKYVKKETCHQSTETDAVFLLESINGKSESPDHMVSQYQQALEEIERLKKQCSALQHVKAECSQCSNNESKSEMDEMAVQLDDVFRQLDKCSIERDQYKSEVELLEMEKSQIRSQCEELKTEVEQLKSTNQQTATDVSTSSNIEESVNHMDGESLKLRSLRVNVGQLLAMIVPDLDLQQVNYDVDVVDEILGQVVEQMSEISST
UniProt Q8IWI9: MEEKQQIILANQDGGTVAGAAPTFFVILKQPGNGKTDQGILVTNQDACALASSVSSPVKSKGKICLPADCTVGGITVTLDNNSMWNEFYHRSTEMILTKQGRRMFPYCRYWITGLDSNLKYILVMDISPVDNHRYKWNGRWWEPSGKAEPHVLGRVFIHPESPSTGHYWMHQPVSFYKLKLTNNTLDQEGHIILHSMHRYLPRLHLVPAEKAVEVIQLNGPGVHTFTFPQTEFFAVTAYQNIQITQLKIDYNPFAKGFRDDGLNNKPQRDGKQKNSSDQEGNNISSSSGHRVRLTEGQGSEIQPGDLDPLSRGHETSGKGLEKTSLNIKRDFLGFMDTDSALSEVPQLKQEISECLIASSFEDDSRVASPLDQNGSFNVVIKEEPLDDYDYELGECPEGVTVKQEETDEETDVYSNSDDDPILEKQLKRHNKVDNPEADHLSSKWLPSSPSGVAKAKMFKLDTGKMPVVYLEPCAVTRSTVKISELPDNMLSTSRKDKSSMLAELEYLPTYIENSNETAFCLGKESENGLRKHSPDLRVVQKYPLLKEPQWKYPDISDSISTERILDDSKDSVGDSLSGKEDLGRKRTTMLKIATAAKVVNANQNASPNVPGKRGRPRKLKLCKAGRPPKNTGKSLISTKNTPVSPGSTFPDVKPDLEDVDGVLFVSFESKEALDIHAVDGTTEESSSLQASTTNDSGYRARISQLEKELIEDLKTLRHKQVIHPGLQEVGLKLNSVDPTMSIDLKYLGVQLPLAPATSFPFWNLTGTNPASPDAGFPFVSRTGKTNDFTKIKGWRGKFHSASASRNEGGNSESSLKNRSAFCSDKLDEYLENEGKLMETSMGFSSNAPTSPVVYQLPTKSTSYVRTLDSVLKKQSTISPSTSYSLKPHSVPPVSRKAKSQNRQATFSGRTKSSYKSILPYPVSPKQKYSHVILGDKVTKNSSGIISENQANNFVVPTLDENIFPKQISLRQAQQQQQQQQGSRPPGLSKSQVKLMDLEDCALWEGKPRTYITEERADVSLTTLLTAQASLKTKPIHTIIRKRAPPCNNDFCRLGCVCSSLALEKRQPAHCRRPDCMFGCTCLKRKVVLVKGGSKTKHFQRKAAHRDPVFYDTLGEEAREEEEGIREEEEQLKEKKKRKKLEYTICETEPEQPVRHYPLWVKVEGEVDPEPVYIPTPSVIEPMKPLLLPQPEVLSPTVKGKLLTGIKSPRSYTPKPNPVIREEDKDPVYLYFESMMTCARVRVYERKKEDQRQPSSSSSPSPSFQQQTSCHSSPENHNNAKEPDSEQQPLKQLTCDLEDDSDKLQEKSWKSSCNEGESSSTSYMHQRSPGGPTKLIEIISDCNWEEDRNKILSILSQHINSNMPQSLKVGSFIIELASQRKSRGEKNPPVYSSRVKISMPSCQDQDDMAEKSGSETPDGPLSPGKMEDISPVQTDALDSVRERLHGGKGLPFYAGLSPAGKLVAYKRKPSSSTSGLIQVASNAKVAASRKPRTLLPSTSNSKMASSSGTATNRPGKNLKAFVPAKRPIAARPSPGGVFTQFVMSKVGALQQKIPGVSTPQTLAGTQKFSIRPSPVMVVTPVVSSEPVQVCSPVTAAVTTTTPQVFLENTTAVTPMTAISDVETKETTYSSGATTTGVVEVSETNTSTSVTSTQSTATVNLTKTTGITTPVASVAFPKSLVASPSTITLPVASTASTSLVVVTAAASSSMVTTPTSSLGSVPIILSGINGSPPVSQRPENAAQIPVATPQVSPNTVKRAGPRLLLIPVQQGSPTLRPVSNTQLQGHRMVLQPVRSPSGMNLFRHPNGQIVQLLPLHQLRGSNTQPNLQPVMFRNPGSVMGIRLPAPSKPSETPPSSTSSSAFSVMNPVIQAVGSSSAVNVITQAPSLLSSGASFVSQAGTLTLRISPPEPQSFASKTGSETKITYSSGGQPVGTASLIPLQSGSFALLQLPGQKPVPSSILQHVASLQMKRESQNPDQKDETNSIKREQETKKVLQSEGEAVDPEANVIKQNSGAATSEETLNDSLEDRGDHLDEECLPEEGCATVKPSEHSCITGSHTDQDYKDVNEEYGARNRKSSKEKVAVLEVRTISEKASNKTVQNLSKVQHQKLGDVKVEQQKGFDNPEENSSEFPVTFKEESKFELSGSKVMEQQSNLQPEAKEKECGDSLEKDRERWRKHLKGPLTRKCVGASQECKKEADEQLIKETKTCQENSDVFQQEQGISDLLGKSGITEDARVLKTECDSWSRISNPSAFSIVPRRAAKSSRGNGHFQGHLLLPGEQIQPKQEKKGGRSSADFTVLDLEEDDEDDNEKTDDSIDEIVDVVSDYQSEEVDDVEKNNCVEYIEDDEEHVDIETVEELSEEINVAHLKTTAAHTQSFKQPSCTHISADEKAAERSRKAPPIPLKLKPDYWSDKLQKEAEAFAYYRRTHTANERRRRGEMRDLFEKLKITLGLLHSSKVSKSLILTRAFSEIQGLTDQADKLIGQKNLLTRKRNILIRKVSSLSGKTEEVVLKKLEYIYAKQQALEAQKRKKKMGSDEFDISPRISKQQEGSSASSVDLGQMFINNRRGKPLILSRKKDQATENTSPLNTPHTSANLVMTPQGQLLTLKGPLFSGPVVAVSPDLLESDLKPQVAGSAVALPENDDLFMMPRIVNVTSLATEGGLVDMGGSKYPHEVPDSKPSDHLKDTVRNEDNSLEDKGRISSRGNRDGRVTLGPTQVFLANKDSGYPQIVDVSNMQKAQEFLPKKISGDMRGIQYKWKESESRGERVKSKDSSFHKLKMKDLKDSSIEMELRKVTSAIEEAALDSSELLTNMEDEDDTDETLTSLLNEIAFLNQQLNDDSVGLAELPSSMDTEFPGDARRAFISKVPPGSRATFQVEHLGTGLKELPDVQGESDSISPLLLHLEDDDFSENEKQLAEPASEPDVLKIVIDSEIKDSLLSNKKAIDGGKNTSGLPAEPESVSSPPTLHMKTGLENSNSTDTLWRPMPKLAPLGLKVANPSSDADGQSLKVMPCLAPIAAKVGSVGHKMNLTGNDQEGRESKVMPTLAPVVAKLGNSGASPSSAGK
UniProt P50219: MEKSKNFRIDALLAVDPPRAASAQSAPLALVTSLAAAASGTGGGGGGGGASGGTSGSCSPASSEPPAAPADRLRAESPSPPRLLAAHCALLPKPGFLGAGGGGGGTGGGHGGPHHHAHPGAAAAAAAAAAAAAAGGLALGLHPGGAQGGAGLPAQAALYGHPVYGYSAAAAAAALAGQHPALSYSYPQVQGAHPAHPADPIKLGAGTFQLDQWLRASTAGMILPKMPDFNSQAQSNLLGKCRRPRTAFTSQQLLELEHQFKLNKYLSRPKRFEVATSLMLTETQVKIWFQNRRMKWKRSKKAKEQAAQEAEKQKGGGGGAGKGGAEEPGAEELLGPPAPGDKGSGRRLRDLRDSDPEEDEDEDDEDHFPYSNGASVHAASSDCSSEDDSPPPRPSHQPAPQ
UniProt O96007: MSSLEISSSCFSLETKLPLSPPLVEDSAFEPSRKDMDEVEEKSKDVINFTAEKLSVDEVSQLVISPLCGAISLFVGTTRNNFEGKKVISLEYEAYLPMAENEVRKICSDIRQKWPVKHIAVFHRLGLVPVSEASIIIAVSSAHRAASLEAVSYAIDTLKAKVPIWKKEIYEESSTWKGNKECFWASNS
UniProt A9UHW6: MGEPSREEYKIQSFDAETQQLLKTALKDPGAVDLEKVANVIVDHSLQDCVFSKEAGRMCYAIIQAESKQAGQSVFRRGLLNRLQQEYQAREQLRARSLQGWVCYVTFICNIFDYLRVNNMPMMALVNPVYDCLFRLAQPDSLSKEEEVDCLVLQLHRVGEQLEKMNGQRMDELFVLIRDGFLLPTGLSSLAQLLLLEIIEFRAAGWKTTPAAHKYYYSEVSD
UniProt Q8WV92, whole entry, looked up: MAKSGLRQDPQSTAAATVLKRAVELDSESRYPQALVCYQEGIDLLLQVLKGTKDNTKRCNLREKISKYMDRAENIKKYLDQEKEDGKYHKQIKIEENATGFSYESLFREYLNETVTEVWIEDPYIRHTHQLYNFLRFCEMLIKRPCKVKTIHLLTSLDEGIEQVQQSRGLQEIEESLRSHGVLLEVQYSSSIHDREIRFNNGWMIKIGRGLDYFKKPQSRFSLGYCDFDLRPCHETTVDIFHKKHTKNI

Compound: CC[C@@H]1C(=O)N(C)c2cnc(Nc3ccc(C(=O)NC4CCN(C)CC4)cc3OC)nc2N1C1CCCC1
Assay: log2 fold change, soluble protein after heating vs DMSO (PISA); higher = thermal stabilisation; K562 lysate, 10 uM; active = over 0.2 and 3.5 SD of the protein, either way, in both replicates (recomputed)
Procedure, shortened: (§1)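 Values give the log-two fold change in thermal stability against solvent controls, from duplicates. Crude K562 extract at 1 mg/mL protein, made by dounce homogenisation in PBS pH 7.4 with 1 mM MgCl2, was treated with 10 μM compound for 30 min. After 3 min heating across 48°C-58°C, aliquots were pooled, adjusted to 0.5% NP-40 at 4°C and centrifuged at 21,000xg for 90 min. The supernatant was measured by TMTpro 16plex LC-MS/MS with channel sums equalised.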

| Target | log2 fold change |
| --- | --- |
| MKLN1 (UniProt Q9UL63) | inactive: 0 |
| MICAL3 (UniProt Q7RTP6) | inactive: 0.042 |
| MGST1 (UniProt P10620) | inactive: 0.097 |
| MMADHC (UniProt Q9H3L0) | inactive: 0.039 |
| MON1B (UniProt Q7L1V2) | inactive: 0.018 |
| MRPL16 (UniProt Q9NX20) | inactive: -0.064 |
| MOSPD2 (UniProt Q8NHP6) | inactive: 0.158 |
| MON2 isoform 5 (UniProt Q7Z3U7) | inactive: -0.029 |
| MGST2 (UniProt Q99735) | inactive: 0.111 |
| MKKS (UniProt Q9HB66) | inactive: 0.038 |
| MOCOS (UniProt Q96EN8) | inactive: -0.031 |
| MPG (UniProt P29372) | inactive: -0.016 |
| MRPL1 (UniProt Q9BYD6) | inactive: -0.035 |
| MRAS (UniProt O14807) | inactive: 0.058 |
| MOB4 (UniProt Q9Y3A3) | inactive: -0.052 |
| MIPEP (UniProt Q99797) | inactive: -0.053 |
| MLST8 (UniProt Q9BVC4) | inactive: 0.026 |
| MORC3 (UniProt Q14149) | inactive: -0.03 |

| Target | log2 fold change |
| --- | --- |
| MPV17 (UniProt P39210) | inactive: 0.036 |
| MICU2 (UniProt Q8IYU8) | inactive: -0.023 |
| MOB3B (UniProt Q86TA1) | inactive: 0.098 |
| MGA (UniProt Q8IWI9) | inactive: 0.135 |
| MNX1 (UniProt P50219) | inactive: 0.095 |
| MINDY1 isoform 3 (UniProt Q8N5J2) | inactive: 0.059 |
| MRE11 isoform 3 (UniProt P49959) | inactive: 0.025 |
| MPLKIP (UniProt Q8TAP9) | inactive: -0.028 |
| MMS22L (UniProt Q6ZRQ5) | inactive: -0.182 |
| MRGBP (UniProt Q9NV56) | inactive: -0.181 |
| MOCS2 (UniProt O96007) | inactive: 0.06 |
| MGRN1 isoform 2 (UniProt O60291) | inactive: 0.075 |
| MIF4GD isoform 3 (UniProt A9UHW6) | inactive: -0.019 |
| MNT (UniProt Q99583) | inactive: 0.155 |
| MKI67 (UniProt P46013) | inactive: 0.042 |
| MOCS1 isoform 8 (UniProt Q9NZB8) | inactive: -0.043 |
| MRM1 (UniProt Q6IN84) | inactive: -0.045 |
| MITD1 (UniProt Q8WV92) | inactive: 0.013 |

Compound: CC[C@@H]1C(=O)N(C)c2cnc(Nc3ccc(C(=O)N[C@H]4CC[C@H](N5CCN(CC6CC6)CC5)CC4)cc3OC)nc2N1C(C)C [volasertib]
Assay: as above
Procedure, shortened: as §1

| Target | log2 fold change |
| --- | --- |
| MKLN1 (UniProt Q9UL63) | inactive: 0.004 |
| MICAL3 (UniProt Q7RTP6) | inactive: -0.003 |
| MGST1 (UniProt P10620) | inactive: 0.07 |
| MMADHC (UniProt Q9H3L0) | inactive: 0.005 |
| MON1B (UniProt Q7L1V2) | inactive: -0.013 |
| MRPL16 (UniProt Q9NX20) | inactive: -0.08 |
| MOSPD2 (UniProt Q8NHP6) | inactive: -0.014 |
| MON2 isoform 5 (UniProt Q7Z3U7) | inactive: -0.04 |
| MGST2 (UniProt Q99735) | inactive: 0.017 |
| MICAL2 (UniProt O94851) | inactive: 0.052 |
| MKKS (UniProt Q9HB66) | inactive: -0.094 |
| MOCOS (UniProt Q96EN8) | inactive: 0.043 |
| MPG (UniProt P29372) | inactive: -0.052 |
| MRPL1 (UniProt Q9BYD6) | inactive: -0.013 |
| MRAS (UniProt O14807) | inactive: 0.025 |
| MOB4 (UniProt Q9Y3A3) | inactive: 0.01 |
| MIPEP (UniProt Q99797) | inactive: -0.029 |
| MLST8 (UniProt Q9BVC4) | inactive: -0.009 |
| MORC3 (UniProt Q14149) | inactive: -0.077 |
| MPV17 (UniProt P39210) | inactive: 0.196 |

| Target | log2 fold change |
| --- | --- |
| MICU2 (UniProt Q8IYU8) | inactive: 0 |
| MOB3B (UniProt Q86TA1) | inactive: -0.015 |
| MGA (UniProt Q8IWI9) | inactive: -0.061 |
| MNX1 (UniProt P50219) | inactive: -0.059 |
| MINDY1 isoform 3 (UniProt Q8N5J2) | inactive: -0.041 |
| MRE11 isoform 3 (UniProt P49959) | inactive: 0.006 |
| MRPL2 (UniProt Q5T653) | inactive: 0 |
| MPLKIP (UniProt Q8TAP9) | inactive: 0.128 |
| MMS22L (UniProt Q6ZRQ5) | inactive: -0.119 |
| MRGBP (UniProt Q9NV56) | inactive: 0.021 |
| MOCS2 (UniProt O96007) | inactive: 0.028 |
| MKRN3 (UniProt Q13064) | inactive: -0.016 |
| MGRN1 isoform 2 (UniProt O60291) | inactive: -0.054 |
| MIF4GD isoform 3 (UniProt A9UHW6) | inactive: -0.012 |
| MNT (UniProt Q99583) | inactive: -0.012 |
| MKI67 (UniProt P46013) | inactive: 0.006 |
| MOCS1 isoform 8 (UniProt Q9NZB8) | inactive: -0.004 |
| MRM1 (UniProt Q6IN84) | inactive: 0.007 |
| MITD1 (UniProt Q8WV92) | inactive: -0.07 |
